Laboratory results reported in article PMC8875030.
These are yes or no findings as the source states them, for the method shown. Binding seen in cells or lysates may run through a third protein. Some entries that bind do so weakly or less than the wild type.

Sequences of proteins named here, by UniProt entry; tags and fusion partners are left off.
UniProt P16370: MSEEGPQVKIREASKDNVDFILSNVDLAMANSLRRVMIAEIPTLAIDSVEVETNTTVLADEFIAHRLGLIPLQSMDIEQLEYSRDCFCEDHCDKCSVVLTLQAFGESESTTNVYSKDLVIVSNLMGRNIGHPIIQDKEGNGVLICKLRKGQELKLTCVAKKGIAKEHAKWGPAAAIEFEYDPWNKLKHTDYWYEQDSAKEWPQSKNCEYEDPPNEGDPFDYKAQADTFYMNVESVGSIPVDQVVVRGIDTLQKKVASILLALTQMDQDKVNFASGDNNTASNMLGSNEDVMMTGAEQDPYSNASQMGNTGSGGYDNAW
UniProt P20434: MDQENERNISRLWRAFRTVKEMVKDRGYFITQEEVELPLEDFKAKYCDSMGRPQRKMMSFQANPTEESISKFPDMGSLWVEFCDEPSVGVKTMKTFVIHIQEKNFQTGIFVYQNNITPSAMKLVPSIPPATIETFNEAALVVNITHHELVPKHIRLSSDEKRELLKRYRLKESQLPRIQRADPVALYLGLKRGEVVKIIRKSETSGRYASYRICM
UniProt P20435: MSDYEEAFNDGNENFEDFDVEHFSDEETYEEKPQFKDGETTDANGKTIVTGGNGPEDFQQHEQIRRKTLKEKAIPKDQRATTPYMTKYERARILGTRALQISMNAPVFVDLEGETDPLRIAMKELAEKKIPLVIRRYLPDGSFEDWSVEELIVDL

Target: Rpb3 subunit of RNA pol II (S. cerevisiae) (UniProt P16370)
Test: co-IP; anti-Rpb3 antibody (1Y26) on Dynabeads Sheep-anti-Mouse IgG, 2 mg whole-cell protein extract of wild-type and rtr1Δ strains (YPD, 30 °C; in Figure 6B SD medium, with RPB4/7 overexpression or empty vectors); lysis buffer 50 mM HEPES pH 7.5, 120 mM NaCl, 1 mM EDTA, 0.3% CHAPS; Western blot of …

Rpb5 subunit of RNA pol II (from UniProt P20434 1-215)
binding: binds

Rpb6 subunit of RNA pol II (from UniProt P20435 1-155)
binding: binds
